The mice bore no tumour; each value counts animals alive of those treated. Counts of survivors are from the toxicity check (mostly the fifth day) where no day follows; animals may have died later. Schedules are NCI's codes, read here as Q, the interval in days (D) or hours (H), X, the number of doses. Signs of the kind (2×) say how often a value occurs here. Some entries were tested several times; their values stand side by side, smallest first.
System: B6D2F1 mice, nontumored toxicity test, survival
Assay: NCI In Vivo Anticancer Drug Screen. Data for tumor model Nontumored Animals (Toxicity Test) in B6D2F1 (BDF1) mice
Settings: vehicle: saline

O=P1(N(CCCl)CCCl)NCCCO1 (stereo unspecified) was tested, and the survivor count (dose: 6.25 mg/kg/injection, schedule: Q01DX017 (ip)) was 8 of 8, the survivor count (dose: 10.0 mg/kg/injection, schedule: Q04DX003 (ip)) was 5 of 5 and the survivor count (dose: 12.5 mg/kg/injection, schedule: Q01DX009 (ip)) was 8 of 8. The survivor count (dose: 12.5 mg/kg/injection, schedule: Q01DX017 (ip)) was 8 of 8, the survivor count (dose: 18.0 mg/kg/injection, schedule: Q01DX009 (ip)) was 5 of 5 and the survivor count (dose: 20.0 mg/kg/injection, schedule: Q04DX003 (ip)) was 5 of 5. For the same molecule, the survivor count (dose: 25.0 mg/kg/injection, schedule: Q01DX009 (ip)) was 8 of 8, the survivor count (dose: 25.0 mg/kg/injection, schedule: Q01DX017 (ip)) was 8 of 8 and the survivor count (dose: 25.0 mg/kg/injection, schedule: Q04DX003 (ip)) was 8 of 8. For the same molecule, the survivor count (dose: 25.0 mg/kg/injection, schedule: Q04DX005 (ip)) was 8 of 8, the survivor count (dose: 25.0 mg/kg/injection, schedule: Q08DX002 (ip)) was 6 of 6 and the survivor count (dose: 25.0 mg/kg/injection, schedule: Q08DX003 (ip)) was 6 of 6. For the same molecule, the survivor count (dose: 30.0 mg/kg/injection, schedule: Q01DX009 (ip)) was 5 of 5, the survivor count (dose: 40.0 mg/kg/injection, schedule: Q04DX003 (ip)) was 5 of 5 and the survivor count (dose: 50.0 mg/kg/injection, schedule: Q01DX001 (ip)) was 4 of 4 and 8 of 8. For the same molecule, the survivor count (dose: 50.0 mg/kg/injection, schedule: Q01DX009 (ip)) was 5 of 5 and 8 of 8, the survivor count (dose: 50.0 mg/kg/injection, schedule: Q01DX017 (ip)) was 8 of 8 and the survivor count (dose: 50.0 mg/kg/injection, schedule: Q04DX003 (ip)) was 8 of 8. The survivor count (dose: 50.0 mg/kg/injection, schedule: Q04DX005 (ip)) was 8 of 8, the survivor count (dose: 50.0 mg/kg/injection, schedule: Q08DX002 (ip)) was 6 of 6 and 8 of 8 and the survivor count (dose: 50.0 mg/kg/injection, schedule: Q08DX003 (ip)) was 6 of 6 and 8 of 8. The survivor count (dose: 65.0 mg/kg/injection, schedule: Q07DX004 (ip)) was 8 of 8, the survivor count (dose: 72.0 mg/kg/injection, schedule: Q01DX001 (ip)) was 5 of 5 and the survivor count (dose: 75.0 mg/kg/injection, schedule: Q01DX001 (ip)) was 10 of 10 and 4 of 4. For the same molecule, the survivor count (dose: 80.0 mg/kg/injection, schedule: Q04DX003 (ip)) was 5 of 5, the survivor count (dose: 83.0 mg/kg/injection, schedule: Q01DX009 (ip)) was 5 of 5 and the survivor count (dose: 100.0 mg/kg/injection, schedule: Q01DX001 (ip)) was 10 of 10, 4 of 4, 8 of 8. The survivor count (dose: 100.0 mg/kg/injection, schedule: Q01DX009 (ip)) was 8 of 8, the survivor count (dose: 100.0 mg/kg/injection, schedule: Q04DX003 (ip)) was 8 of 8 and the survivor count (dose: 100.0 mg/kg/injection, schedule: Q04DX005 (ip)) was 8 of 8. For the same molecule, the survivor count (dose: 100.0 mg/kg/injection, schedule: Q08DX002 (ip)) was 6 of 6 and 8 of 8, the survivor count (dose: 100.0 mg/kg/injection, schedule: Q08DX003 (ip)) was 6 of 6 and 8 of 8 and the survivor count (dose: 108.0 mg/kg/injection, schedule: Q01DX001 (ip)) was 5 of 6, 6 of 6, 8 of 8. For the same molecule, the survivor count (dose: 108.0 mg/kg/injection, schedule: Q07DX004 (ip)) was 8 of 8, the survivor count (dose: 120.0 mg/kg/injection, schedule: Q01DX001 (ip)) was 5 of 5 and the survivor count (dose: 133.0 mg/kg/injection, schedule: Q01DX001 (ip)) was 10 of 10 (2×). The survivor count (dose: 137.0 mg/kg/injection, schedule: Q01DX001 (ip)) was 10 of 10, the survivor count (dose: 150.0 mg/kg/injection, schedule: Q01DX001 (ip)) was 10 of 10 and 4 of 4 and the survivor count (dose: 160.0 mg/kg/injection, schedule: Q04DX003 (ip)) was 5 of 5. For the same molecule, the survivor count (dose: 180.0 mg/kg/injection, schedule: Q01DX001 (ip)) was 2 of 6, 3 of 8, 5 of 6, 8 of 8, the survivor count (dose: 180.0 mg/kg/injection, schedule: Q07DX004 (ip)) was 8 of 8 and the survivor count (dose: 200.0 mg/kg/injection, schedule: Q01DX001 (ip)) was 10 of 10 (2×), 4 of 4, 5 of 5, 8 of 8, 9 of 9 (2×). For the same molecule, the survivor count (dose: 200.0 mg/kg/injection, schedule: Q04DX003 (ip)) was 8 of 8, the survivor count (dose: 200.0 mg/kg/injection, schedule: Q04DX005 (ip)) was 8 of 8 and the survivor count (dose: 200.0 mg/kg/injection, schedule: Q08DX002 (ip)) was 8 of 8. For the same molecule, the survivor count (dose: 200.0 mg/kg/injection, schedule: Q08DX003 (ip)) was 8 of 8, the survivor count (dose: 209.0 mg/kg/injection, schedule: Q01DX001 (ip)) was 10 of 10 and the survivor count (dose: 250.0 mg/kg/injection, schedule: Q01DX001 (ip)) was 10 of 10. For the same molecule, the survivor count (dose: 256.0 mg/kg/injection, schedule: Q01DX001 (sc)) was 6 of 6, the survivor count (dose: 300.0 mg/kg/injection, schedule: Q01DX001 (ip)) was 3 of 8, 7 of 8, 9 of 10, 10 of 10 (2×), 4 of 4, 6 of 6, 8 of 8 and the survivor count (dose: 300.0 mg/kg/injection, schedule: Q07DX004 (ip)) was 8 of 8. The survivor count (dose: 312.0 mg/kg/injection, schedule: Q01DX001 (ip)) was 10 of 10, the survivor count (dose: 320.0 mg/kg/injection, schedule: Q01DX001 (sc)) was 6 of 6 and the survivor count (dose: 333.0 mg/kg/injection, schedule: Q01DX001 (ip)) was 5 of 5. For the same molecule, the survivor count (dose: 350.0 mg/kg/injection, schedule: Q01DX001 (ip)) was 8 of 9, 9 of 10, 10 of 10, the survivor count (dose: 375.0 mg/kg/injection, schedule: Q01DX001 (ip)) was 10 of 10 and the survivor count (dose: 400.0 mg/kg/injection, schedule: Q01DX001 (ip)) was 10 of 10, 4 of 4, 8 of 8. For the same molecule, the survivor count (dose: 400.0 mg/kg/injection, schedule: Q01DX001 (sc)) was 5 of 6, the survivor count (dose: 400.0 mg/kg/injection, schedule: Q08DX002 (ip)) was 8 of 8 and the survivor count (dose: 400.0 mg/kg/injection, schedule: Q08DX003 (ip)) was 8 of 8. For the same molecule, the survivor count (dose: 499.0 mg/kg/injection, schedule: Q01DX001 (ip)) was 8 of 9 and 10 of 10, the survivor count (dose: 500.0 mg/kg/injection, schedule: Q01DX001 (ip)) was 0 of 8, 2 of 6, 3 of 8, 4 of 8, 5 of 8 and the survivor count (dose: 500.0 mg/kg/injection, schedule: Q01DX001 (sc)) was 0 of 6. The survivor count (dose: 560.0 mg/kg/injection, schedule: Q01DX001 (ip)) was 2 of 4 and 6 of 8, the survivor count (dose: 600.0 mg/kg/injection, schedule: Q01DX001 (ip)) was 2 of 3 and the survivor count (dose: 625.0 mg/kg/injection, schedule: Q01DX001 (sc)) was 1 of 6.

CCCC(=O)Nc1ncnc2c1ncn2C1OC2COP(=O)(O)OC2C1OC(=O)CCC (stereo unspecified) was tested, and the survivor count (dose: 16.0 mg/kg/injection, schedule: Q06HX024 (ip)) was 8 of 8, the survivor count (dose: 32.0 mg/kg/injection, schedule: Q06HX024 (ip)) was 8 of 8 and the survivor count (dose: 64.0 mg/kg/injection, schedule: Q06HX024 (ip)) was 8 of 8. The survivor count (dose: 128.0 mg/kg/injection, schedule: Q06HX024 (ip)) was 8 of 8 and the survivor count (dose: 256.0 mg/kg/injection, schedule: Q06HX024 (ip)) was 7 of 8.

— PubChem BioAssay AID186 (DTP/NCI, 2004)
